Assay results: paper doi:10.1101/2021.12.17.472994

By UniProt entry, the sequences of proteins in these tests, tags left out. Where a name states a change or a piece, a line headed by the entry shows the natural chain unless it says otherwise.
UniProt Q13105: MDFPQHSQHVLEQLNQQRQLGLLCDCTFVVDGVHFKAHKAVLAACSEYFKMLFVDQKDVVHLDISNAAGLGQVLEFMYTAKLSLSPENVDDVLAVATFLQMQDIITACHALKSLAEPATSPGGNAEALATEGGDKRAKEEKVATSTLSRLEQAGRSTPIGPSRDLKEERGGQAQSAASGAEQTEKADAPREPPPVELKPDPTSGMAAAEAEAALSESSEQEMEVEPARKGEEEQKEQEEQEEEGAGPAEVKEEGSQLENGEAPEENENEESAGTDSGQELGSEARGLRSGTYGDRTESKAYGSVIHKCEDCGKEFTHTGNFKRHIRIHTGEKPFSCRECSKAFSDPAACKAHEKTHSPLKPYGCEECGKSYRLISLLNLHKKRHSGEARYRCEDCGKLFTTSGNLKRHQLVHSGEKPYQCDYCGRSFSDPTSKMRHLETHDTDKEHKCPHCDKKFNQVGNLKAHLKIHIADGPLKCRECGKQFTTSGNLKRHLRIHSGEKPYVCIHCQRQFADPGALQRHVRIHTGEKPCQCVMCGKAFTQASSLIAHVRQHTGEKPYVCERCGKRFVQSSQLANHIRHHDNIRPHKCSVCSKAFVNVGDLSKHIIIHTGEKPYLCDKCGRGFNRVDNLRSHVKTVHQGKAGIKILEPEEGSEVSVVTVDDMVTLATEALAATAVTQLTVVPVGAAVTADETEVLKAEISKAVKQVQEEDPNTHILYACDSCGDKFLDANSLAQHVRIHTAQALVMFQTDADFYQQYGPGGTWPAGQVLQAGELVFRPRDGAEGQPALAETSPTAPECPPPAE
UniProt Q05516: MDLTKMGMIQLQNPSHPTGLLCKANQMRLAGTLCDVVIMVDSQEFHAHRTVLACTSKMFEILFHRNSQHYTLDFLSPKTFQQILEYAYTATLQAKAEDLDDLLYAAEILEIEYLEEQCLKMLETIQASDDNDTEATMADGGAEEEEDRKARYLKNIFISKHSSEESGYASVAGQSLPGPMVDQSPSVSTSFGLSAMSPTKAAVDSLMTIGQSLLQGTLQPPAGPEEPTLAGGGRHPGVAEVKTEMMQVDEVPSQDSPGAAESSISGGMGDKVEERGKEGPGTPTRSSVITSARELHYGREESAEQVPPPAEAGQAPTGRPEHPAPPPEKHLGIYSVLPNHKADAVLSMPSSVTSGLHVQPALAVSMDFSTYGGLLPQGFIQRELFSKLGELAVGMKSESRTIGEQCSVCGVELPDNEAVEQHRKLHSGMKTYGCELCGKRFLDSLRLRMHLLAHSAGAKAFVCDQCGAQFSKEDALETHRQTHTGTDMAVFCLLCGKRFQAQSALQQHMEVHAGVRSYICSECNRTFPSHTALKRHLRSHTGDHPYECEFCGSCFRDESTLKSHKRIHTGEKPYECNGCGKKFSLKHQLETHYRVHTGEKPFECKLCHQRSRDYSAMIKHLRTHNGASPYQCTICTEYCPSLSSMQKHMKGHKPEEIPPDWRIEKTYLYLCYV
UniProt Q5NBY9: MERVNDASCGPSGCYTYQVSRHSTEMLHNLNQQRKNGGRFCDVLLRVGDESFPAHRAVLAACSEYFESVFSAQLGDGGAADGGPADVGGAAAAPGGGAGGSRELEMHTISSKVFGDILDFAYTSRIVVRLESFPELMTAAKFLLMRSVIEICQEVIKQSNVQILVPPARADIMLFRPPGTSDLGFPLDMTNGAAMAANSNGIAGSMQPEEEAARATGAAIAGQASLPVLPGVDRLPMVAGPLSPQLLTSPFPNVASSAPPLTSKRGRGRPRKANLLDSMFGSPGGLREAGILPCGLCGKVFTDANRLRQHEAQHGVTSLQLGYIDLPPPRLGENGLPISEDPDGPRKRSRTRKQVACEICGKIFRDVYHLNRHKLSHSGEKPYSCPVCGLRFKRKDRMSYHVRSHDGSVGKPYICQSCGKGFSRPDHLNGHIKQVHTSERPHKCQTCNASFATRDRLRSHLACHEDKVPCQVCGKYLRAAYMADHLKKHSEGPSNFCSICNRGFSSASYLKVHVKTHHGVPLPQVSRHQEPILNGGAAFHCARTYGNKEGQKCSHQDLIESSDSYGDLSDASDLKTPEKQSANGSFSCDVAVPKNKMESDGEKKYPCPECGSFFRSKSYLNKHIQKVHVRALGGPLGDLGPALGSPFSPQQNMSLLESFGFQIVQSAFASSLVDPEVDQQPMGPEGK
UniProt O95365: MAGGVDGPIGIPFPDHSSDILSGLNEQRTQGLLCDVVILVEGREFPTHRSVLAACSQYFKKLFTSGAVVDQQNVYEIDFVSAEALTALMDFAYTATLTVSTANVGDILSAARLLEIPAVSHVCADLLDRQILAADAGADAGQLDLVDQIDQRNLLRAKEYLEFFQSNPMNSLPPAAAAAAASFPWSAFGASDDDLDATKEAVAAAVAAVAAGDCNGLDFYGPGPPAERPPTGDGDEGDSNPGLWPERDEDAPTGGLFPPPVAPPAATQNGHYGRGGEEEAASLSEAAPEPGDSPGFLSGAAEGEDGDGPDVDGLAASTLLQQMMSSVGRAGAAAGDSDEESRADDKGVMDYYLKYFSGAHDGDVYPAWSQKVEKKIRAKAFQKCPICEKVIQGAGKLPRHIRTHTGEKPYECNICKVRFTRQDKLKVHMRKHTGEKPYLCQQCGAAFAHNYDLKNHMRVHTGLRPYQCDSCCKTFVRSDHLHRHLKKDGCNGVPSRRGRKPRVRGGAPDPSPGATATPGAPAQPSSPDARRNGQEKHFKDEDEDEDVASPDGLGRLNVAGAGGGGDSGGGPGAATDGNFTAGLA
UniProt Q86T24: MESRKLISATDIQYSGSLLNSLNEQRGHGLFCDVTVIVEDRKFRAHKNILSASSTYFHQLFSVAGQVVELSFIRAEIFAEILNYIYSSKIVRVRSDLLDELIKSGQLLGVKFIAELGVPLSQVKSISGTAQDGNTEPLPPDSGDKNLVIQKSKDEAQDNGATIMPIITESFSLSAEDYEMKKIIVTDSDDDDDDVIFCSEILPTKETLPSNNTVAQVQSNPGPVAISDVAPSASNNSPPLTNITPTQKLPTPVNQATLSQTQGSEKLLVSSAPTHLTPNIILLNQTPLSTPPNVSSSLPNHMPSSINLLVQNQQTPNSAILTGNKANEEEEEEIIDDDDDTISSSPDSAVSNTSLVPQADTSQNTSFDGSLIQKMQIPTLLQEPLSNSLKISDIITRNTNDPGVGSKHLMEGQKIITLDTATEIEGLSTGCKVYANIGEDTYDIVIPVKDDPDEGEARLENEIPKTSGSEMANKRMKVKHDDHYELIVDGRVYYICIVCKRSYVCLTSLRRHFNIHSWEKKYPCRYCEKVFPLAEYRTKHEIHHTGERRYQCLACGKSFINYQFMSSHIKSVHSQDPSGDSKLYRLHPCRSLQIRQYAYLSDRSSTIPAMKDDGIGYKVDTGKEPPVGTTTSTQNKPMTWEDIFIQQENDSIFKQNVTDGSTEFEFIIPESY

T1: PATZ2 BTB domain (human) (UniProt O43167)
T1 sequence: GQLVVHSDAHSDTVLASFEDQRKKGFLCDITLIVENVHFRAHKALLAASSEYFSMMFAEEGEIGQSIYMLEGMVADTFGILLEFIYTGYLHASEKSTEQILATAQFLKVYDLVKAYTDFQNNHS


Experiments:
Assay in all cases: two-hybrid
MIZ1 BTB domain (human) = MIZ1 BTB domain (human) (UniProt Q13105)
PATZ2 BTB domain (human) = biological target: T1, PATZ2 BTB domain (human)
PLZF BTB domain (human) = PLZF BTB domain (human) (UniProt Q05516)
[1] = biological target: PATZ1 BTB domain (murine Patz1) (mouse) (UniProt Q5NBY9)
LRF BTB domain (human) = LRF BTB domain (human) (UniProt O95365)
KAISO BTB domain (human) = KAISO BTB domain (human) (UniProt Q86T24)
ThPOK BTB domain (human) = biological target: ThPOK BTB domain (human)

Row | Molecule | binding (MIZ1 BTB domain (human)) | binding (PATZ2 BTB domain (human)) | binding (PLZF BTB domain (human)) | binding [1] | binding (LRF BTB domain (human)) | binding (KAISO BTB domain (human)) | binding (ThPOK BTB domain (human))
1 | KAISO BTB domain (from UniProt Q86T24) (domain or fragment) | no binding | no binding | no binding | no binding | no binding | – | –
2 | LRF BTB domain (from UniProt O95365) (domain or fragment) | no binding | no binding | no binding | no binding | – | no binding | –
3 | MIZ1 BTB domain (from UniProt Q13105) (domain or fragment) | – | no binding | no binding | no binding | no binding | no binding | –
4 | PATZ1 BTB domain (murine Patz1) (from UniProt Q5NBY9) (domain or fragment) | no binding | binds | no binding | – | no binding | no binding | –
5 | PLZF BTB domain (from UniProt Q05516) (domain or fragment) | no binding | no binding | – | no binding | no binding | no binding | –
6 | ThPOK BTB domain (human) (domain or fragment) | – | no binding | – | – | – | – | –
7 | PATZ2 BTB domain (domain or fragment, UniProt O43167 10-133) GQLVVHSDAHSDTVLASFEDQRKKGFLCDITLIVENVHFRAHKALLAASSEYFSMMFAEEGEIGQSIYMLEGMVADTFGILLEFIYTGYLHASEKSTEQILATAQFLKVYDLVKAYTDFQNNHS | no binding | – | no binding | binds | no binding | no binding | no binding

Results are given in words; binding and its absence hold for the method and conditions named. For some assays here: A result given as binding can be weak or reduced; the word gives no strength.
